# Screening data

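Vaccinia-infected cells with a two-color viral stage reporter; Venus fluorescence read on a plate reader; the cell line is not named here; timing not stated here.
The test concentration is not given here.
Percent change in Venus reporter signal; lower (more negative) values mean stronger inhibition of that viral stage.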

Values are in %.
How 0% and 100% were set is not given here.
Common to all entries: measured here: Venus reporter, other viral stage.
Part of the compounds only, not a random draw; the main read-out is not listed here.

{"structure": "C[C@@H]1CN([C@H](C)CO)C(=O)c2cc(C#CCC3CCCC3)cnc2O[C@H]1CN(C)CC1CCOCC1", "activity change (Venus) (%)": "-28.31"}
{"structure": "C[C@H]1CN([C@@H](C)CO)C(=O)c2cccc(NC(=O)Nc3ccc(F)cc3)c2O[C@H]1CN(C)C(=O)Nc1ccc(C(F)(F)F)cc1", "activity change (Venus) (%)": "-62.99"}
{"structure": "COc1ccccc1NC(=O)N1CC[C@@H]2[C@@H](CO)N(C)c3ccc(-c4ccc(F)cc4)cc3[C@@H]21", "activity change (Venus) (%)": "-49.24"}
{"structure": "O=S(=O)(c1ccc(F)cc1)N1CCCCN2[C@H](CO)[C@@H](c3ccc(-c4ccccc4)cc3)[C@H]2C1", "activity change (Venus) (%)": "-49.7"}
{"structure": "C[C@@H]1CN([C@H](C)CO)S(=O)(=O)c2ccc(C#Cc3ccccc3)cc2O[C@@H]1CN(C)C(=O)CN(C)C", "activity change (Venus) (%)": "-77.21"}
{"structure": "C[C@H](CO)N1C[C@H](C)[C@@H](CN(C)Cc2cccc(O)c2)OCc2ccccc2-c2c(n(C)c3ccccc23)C1=O", "activity change (Venus) (%)": "-40.8"}
{"structure": "O=C(Nc1cccc(F)c1)N1C[C@@H]2N[C@H](C1)C2c1ccc(-c2ccncc2)cc1", "stereo": "some centres undefined", "activity change (Venus) (%)": "-59.5"}
{"structure": "CC(C)NC(=O)Nc1ccc2c(c1)C(=O)N([C@H](C)CO)C[C@@H](C)[C@H](CN(C)Cc1ccc(Cl)c(Cl)c1)OCCCC[C@@H](C)O2", "activity change (Venus) (%)": "-70.82"}
{"structure": "C[C@H]1CN([C@@H](C)CO)S(=O)(=O)c2ccc(C3=CCCC3)cc2O[C@H]1CN(C)Cc1ccccc1", "activity change (Venus) (%)": "-63.4"}
{"structure": "C[C@@H]1CN([C@@H](C)CO)C(=O)c2cc(C#CCN(C)C)cnc2O[C@@H]1CN(C)Cc1ccc(-c2ccccc2)cc1", "activity change (Venus) (%)": "-57.5"}
{"structure": "C[C@@H]1CN([C@H](C)CO)C(=O)c2cc(NS(=O)(=O)c3ccc(Cl)cc3)ccc2O[C@@H](C)CCCCO[C@H]1CN(C)Cc1ccc2c(c1)OCO2", "activity change (Venus) (%)": "-62"}
{"structure": "O=C(Nc1cccc(F)c1)N1CC(=O)N2[C@H](C1)[C@@H](c1ccc(-c3ccccc3F)cc1)[C@@H]2CO", "activity change (Venus) (%)": "-39.35"}
{"structure": "C[C@@H]1CN([C@@H](C)CO)C(=O)c2cccc(NC(=O)NC3CCCCC3)c2O[C@@H]1CN(C)Cc1ccc(Oc2ccccc2)cc1", "activity change (Venus) (%)": "-38.23"}
{"structure": "C[C@@H]1CN([C@H](C)CO)C(=O)c2c(c3ccccc3n2C)-c2ccccc2CO[C@@H]1CN(C)S(=O)(=O)c1ccccc1F", "activity change (Venus) (%)": "-49"}
{"structure": "O=S(=O)(N[C@H]1CC[C@@H](CCn2cc(C3CC3)nn2)O[C@@H]1CO)c1ccc(Cl)cc1", "activity change (Venus) (%)": "-33.48"}
{"structure": "CCS(=O)(=O)N1CC(=O)N2[C@H](C1)[C@@H](c1ccc(C#CC3CCCCC3)cc1)[C@@H]2CO", "activity change (Venus) (%)": "-44.12"}
{"structure": "Cc1ccc(S(=O)(=O)Nc2ccc3c(c2)C(=O)N([C@@H](C)CO)C[C@H](C)[C@H](CN(C)CC2CCCCC2)OCCCC[C@@H](C)O3)cc1", "activity change (Venus) (%)": "-68.78"}
{"structure": "COc1ccccc1-c1ccc2c(c1)O[C@H](CN(C)Cc1ccc3c(c1)OCO3)[C@H](C)CN([C@H](C)CO)S2(=O)=O", "activity change (Venus) (%)": "-48.73"}
{"structure": "Cc1ccc(S(=O)(=O)N(C)C[C@H]2OCCCC[C@H](C)Oc3ccc(NS(=O)(=O)c4ccc(F)cc4)cc3C(=O)N([C@@H](C)CO)C[C@@H]2C)cc1", "activity change (Venus) (%)": "-30.49"}
{"structure": "C[C@@H]1CCCCO[C@H](CN(C)Cc2ccc(Cl)c(Cl)c2)[C@@H](C)CN([C@H](C)CO)C(=O)c2cc(N(C)C)ccc2O1", "activity change (Venus) (%)": "-35.62"}
{"structure": "CCOC(=O)[C@H]1[C@@H]2C(=O)N3CCC[C@H]3[C@H](O[Si](C(C)C)(C(C)C)C(C)C)[C@H]2C=C2CCN(S(=O)(=O)c3ccc(C)cc3)C[C@H]21", "activity change (Venus) (%)": "-36.64"}
{"structure": "CO[C@H]1CN(C)C(=O)c2ccc(NC(=O)Nc3cc(Cl)cc(Cl)c3)cc2OC[C@@H](C)NC[C@@H]1C", "activity change (Venus) (%)": "-56.41"}
{"structure": "C[C@H](CO)N1C[C@H](C)[C@H](CN(C)Cc2ccc(Oc3ccccc3)cc2)Oc2ccc(NS(=O)(=O)c3ccccc3)cc2CC1=O", "activity change (Venus) (%)": "-30.35"}
{"structure": "COc1ccccc1S(=O)(=O)N1C[C@@H]2N[C@H](C1)C2c1ccc(-c2ccc(F)cc2)cc1", "stereo": "some centres undefined", "activity change (Venus) (%)": "-64.66"}
{"structure": "CO[C@H]1CN(C)C(=O)c2cc(NS(=O)(=O)c3ccc(-c4ccccc4)cc3)ccc2OC[C@H](C)NC[C@H]1C", "activity change (Venus) (%)": "-28.99"}
{"structure": "C[C@H](NC(=O)C[C@H]1CC[C@@H]2[C@@H](COc3ccc(NS(=O)(=O)c4ccc(Cl)cc4)cc3C(=O)N2C)O1)c1ccccc1", "activity change (Venus) (%)": "-29.61"}
{"structure": "COc1ccccc1C#Cc1ccc([C@H]2[C@H](CO)N3CCCCN(C(=O)C4CCCC4)C[C@@H]23)cc1", "activity change (Venus) (%)": "-50.74"}
{"structure": "C[C@@H]1CN([C@H](C)CO)S(=O)(=O)c2ccc(C3=CCCCC3)cc2O[C@@H]1CN(C)Cc1ccncc1", "activity change (Venus) (%)": "-35.79"}

Data taken from PubChem BioAssay AID1053133, deposited by Broad Institute (2014).